{"source": "PubChem BioAssay AID638", "about": "(SRMLSC, 2007)", "note": "Screen size: about 1,300 compounds; about 65 (5%) were called active.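 The calls were made as follows: active = growth inhibition reaching a set limit at one or more tested doses; inactive = the rest.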 The list shows a part of the results. Potency and affinity values are given separately."}
{"assay": "growth inhibition of wild-type E. coli, dose response, BW25113 wild type, OD615 (AID 638)", "details": "at 100 µM (top of the series) unless noted", "in_short": "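Assay system: E. coli BW25113 wild type. Doses: compound concentration series. Timing: 20 h compound exposure, 37 °C. Technique: OD615 absorbance. Medium: LB broth containing kanamycin at 50 µg/mL. Benchmarks: chloramphenicol at 30 µM final as inhibition control. Measure: IC50 from 4-parameter logistic, bounds fixed 0–100%.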"}
{"smiles": "COc1ccc(NS(=O)(=O)c2ccc3oc(Nc4ccc5c(c4)OCCO5)nc3c2)cc1", "growth inhibition": "inactive: -5.81%"}
{"smiles": "CC(Nc1ccc(Br)cn1)c1cc(Cl)ccc1O", "note": "(stereo unspecified)", "growth inhibition": "inactive: 14.7%"}
{"smiles": "COc1ccc2nc(NC(=O)C3COc4ccccc4O3)sc2c1", "note": "(stereo unspecified)", "growth inhibition": "inactive: -7.38%"}
{"smiles": "Cc1cccc(OCCn2c(NC(=O)c3ccco3)nc3ccccc32)c1", "growth inhibition": "inactive: 7.25%"}
{"smiles": "c1ccc(-c2nc(CSc3nnc(-c4cccs4)o3)cs2)cc1", "growth inhibition": "inactive: -5.14%"}
{"smiles": "O=C(Nc1nccs1)C(NS(=O)(=O)c1ccc(Br)s1)c1ccccc1", "note": "(stereo unspecified)", "growth inhibition": "inactive: -8.7%"}
{"smiles": "CC1CC(N(C(=O)c2ccco2)c2ccccc2)c2ccccc2N1", "note": "(stereo unspecified)", "growth inhibition": "inactive: 0.11%"}
{"smiles": "O=C(c1cc2nc(-c3ccco3)cc(C(F)(F)F)n2n1)N1CCN(c2ccc(F)cc2)CC1", "growth inhibition": "inactive: -4.22%"}
{"smiles": "CN1/C(=C\\C(=O)c2cccs2)Sc2ccccc21", "growth inhibition": "inactive: 4.81%"}
{"smiles": "N#CC1=C(SCC(=O)NC23CC4CC(CC(C4)C2)C3)NC(=O)C(C#N)C12CCCCC2", "note": "(stereo unspecified)", "growth inhibition": "active: 18.1%"}
{"smiles": "O=C1CN(C(=O)c2ccc(Br)o2)C(c2ccccc2)c2cc(Cl)ccc2N1", "note": "(stereo unspecified)", "growth inhibition": "inactive: -0.14%"}
{"smiles": "C=CCn1c(SCC(O)Cn2c3ccccc3c3ccccc32)nnc1-c1ccco1", "note": "(stereo unspecified)", "growth inhibition": "inactive: -9.43%"}
{"smiles": "N#Cc1nc(COc2ccc(F)cc2)oc1N1CCN(Cc2ccccc2)CC1", "growth inhibition": "inactive: -4.55%"}
{"smiles": "COc1ccccc1OCCSc1nnnn1-c1ccc(C)cc1", "growth inhibition": "inactive: 7.78%"}
{"smiles": "Cc1ccc(-c2csc3ncnc(Sc4nnc(CN5CCCCCC5=O)o4)c23)cc1", "growth inhibition": "inactive: 5.4%"}
{"smiles": "c1ccc(CCN2CCN(c3ncnc4c3cnn4-c3ccccc3)CC2)cc1", "growth inhibition": "inactive: 2.47%"}
{"smiles": "N#CCSc1nc2c(c(C3CC=CCC3)c1C#N)CCC2", "note": "(stereo unspecified)", "growth inhibition": "inactive: -1.32%"}
{"smiles": "O=c1c2c(nc3n1CCCCC3)-c1ccccc1CC21CCCC1", "growth inhibition": "inactive: 0.11%"}
{"smiles": "CCCOc1ccc(C2C(C(=O)c3ccc(C)o3)=C(O)C(=O)N2Cc2cccnc2)cc1", "note": "(stereo unspecified)", "growth inhibition": "inactive: 6.33%"}
{"smiles": "CCn1cc(C(=O)NC2CCCCC2C)c(=O)c2ccc(C)nc21", "note": "(stereo unspecified)", "growth inhibition": "inactive: 4.15% [at 50 µM]"}
{"smiles": "Cc1cccc(S(=O)(=O)C(C#N)c2nc3ccccc3nc2N2CC(C)OC(C)C2)c1", "note": "(stereo unspecified)", "growth inhibition": "inactive: -20.4%"}
{"smiles": "COC(=O)c1sccc1NC(=O)c1ccc(Cl)s1", "growth inhibition": "inactive: 1.64%"}
{"smiles": "CCNc1nc(SCc2ccccc2)nc(N2CCOCC2)n1", "growth inhibition": "inactive: 6.48%"}
{"smiles": "Cc1ccc(OCc2nc(C#N)c(NCc3ccc4c(c3)OCO4)o2)cc1", "growth inhibition": "inactive: -12.3%"}
{"smiles": "Cc1ccc(N(CC(=O)Nc2cccc(C)c2)S(=O)(=O)c2cccc3nonc23)cc1", "growth inhibition": "inactive: -20.5%"}
{"smiles": "Cc1ccc(N(CC(=O)Nc2ccc3c(c2)OCCO3)S(=O)(=O)c2c(C)noc2C)cc1", "growth inhibition": "inactive: -3.69%"}
{"smiles": "Cc1ccc(C2CC(c3cccc(Br)c3)Nc3nnnn32)cc1", "note": "(stereo unspecified)", "growth inhibition": "inactive: -8.96%"}
{"smiles": "CCN(CCCNC(=O)CCc1nc(-c2ccc(C)cc2)no1)c1cccc(C)c1", "growth inhibition": "inactive: -5.93%"}
{"smiles": "COc1ccc(-c2[nH]ncc2Oc2ccccc2OC)c(O)c1", "growth inhibition": "inactive: 10.7%"}
{"smiles": "Cc1csc(NC(=O)C2CCCN(S(=O)(=O)c3ccc(Br)s3)C2)n1", "note": "(stereo unspecified)", "growth inhibition": "inactive: -1.72%"}
{"smiles": "O=C(c1ccco1)N1CCN(c2c(-c3ccccc3)c3cc(Cl)ccc3[nH]c2=O)CC1", "growth inhibition": "inactive: 7.38%"}
{"smiles": "COc1ccc(S(=O)(=O)n2cnc3cc(C)c(C)cc32)cc1C", "growth inhibition": "inactive: -10.4%"}
{"smiles": "Cn1c(=O)n(CCCOc2ccc(Cl)cc2)c2ccccc21", "growth inhibition": "inactive: 2.36%"}
{"smiles": "CCCCCCC(=O)N1CCC(c2nc3c(nnn3Cc3ccccc3Cl)c(=O)[nH]2)CC1", "growth inhibition": "inactive: -4.51%"}
{"smiles": "c1ccc(CSc2nnc(-c3ccco3)n2Cc2ccccc2)cc1", "growth inhibition": "inactive: -0.52%"}
{"smiles": "O=C(Nc1ccc2c(c1)CCC2)C1COc2ccccc2O1", "note": "(stereo unspecified)", "growth inhibition": "inactive: 7.62%"}
{"smiles": "CCOc1ccc(N(CC(=O)Nc2ccc(C)c(C)c2)S(=O)(=O)c2c(C)noc2C)cc1", "growth inhibition": "inactive: -3.91%"}
{"smiles": "Cn1cc(SCC(=O)Nc2nc3ccccc3s2)c2ccccc21", "growth inhibition": "inactive: -9.89%"}
{"smiles": "Cc1nc2c(C(=O)NCc3ccc4c(c3)OCO4)c[nH]n2c(=O)c1Cc1ccccc1F", "growth inhibition": "inactive: 0.77%"}
{"smiles": "Cc1cc(N2CCN(c3ccccc3)CC2)nc(-c2ccccc2)n1", "growth inhibition": "inactive: -2.76%"}
{"smiles": "CCOC(=O)c1cnc(-n2nc(C)cc2C)nc1NC(C)c1ccccc1", "note": "(stereo unspecified)", "growth inhibition": "inactive: 6.59%"}
{"smiles": "COc1cccc(C2/C(=C(/O)c3ccc(C)cc3)C(=O)C(=O)N2Cc2ccco2)c1", "note": "(stereo unspecified)", "growth inhibition": "inactive: -3.65%"}
{"smiles": "CCCn1nnc(NC(=O)COc2ccc(C3CCCCC3)cc2)n1", "growth inhibition": "inactive: 3.74%"}
{"smiles": "COc1ccc(C(=O)C(CN2CCOCC2)c2ccccc2)cc1F", "note": "(stereo unspecified)", "growth inhibition": "inactive: 11%"}
{"smiles": "O=c1[nH]c2ccc(S(=O)(=O)N3CCN(c4ccccc4F)CC3)cc2s1", "growth inhibition": "inactive: -14.9%"}
{"smiles": "O=C(Nc1scc(-c2cccs2)c1C(=O)O)c1cccs1", "growth inhibition": "inactive: -14.8%"}
